Experimental data as given in article PMC7248104.
No constants are given. Whether binding was seen depends on the method and setting. Binding seen in cells or lysates may run through a third protein. These calls come from enrichment with a bait or labelling near it, and not all partners need be listed. Sequences can lack the tags named with a protein.

The chains behind the UniProt entries cited, without tags or fusion partners.
UniProt O60216: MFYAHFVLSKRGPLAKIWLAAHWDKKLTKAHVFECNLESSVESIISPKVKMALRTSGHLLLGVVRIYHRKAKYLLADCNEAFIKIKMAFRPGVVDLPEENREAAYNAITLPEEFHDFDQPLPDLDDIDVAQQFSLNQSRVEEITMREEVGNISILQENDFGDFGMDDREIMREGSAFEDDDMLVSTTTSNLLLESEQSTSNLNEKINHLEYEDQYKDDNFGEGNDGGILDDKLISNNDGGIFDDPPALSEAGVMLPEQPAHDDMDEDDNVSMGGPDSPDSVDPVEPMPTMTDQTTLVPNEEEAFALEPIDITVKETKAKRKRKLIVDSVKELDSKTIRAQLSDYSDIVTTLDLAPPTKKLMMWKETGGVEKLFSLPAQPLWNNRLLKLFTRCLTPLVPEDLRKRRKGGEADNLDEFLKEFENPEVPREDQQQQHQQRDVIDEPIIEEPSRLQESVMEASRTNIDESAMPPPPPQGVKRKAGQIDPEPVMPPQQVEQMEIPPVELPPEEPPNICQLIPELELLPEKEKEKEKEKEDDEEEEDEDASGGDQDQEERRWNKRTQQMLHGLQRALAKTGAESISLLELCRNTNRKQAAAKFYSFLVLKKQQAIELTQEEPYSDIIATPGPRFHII
UniProt Q9UQE7: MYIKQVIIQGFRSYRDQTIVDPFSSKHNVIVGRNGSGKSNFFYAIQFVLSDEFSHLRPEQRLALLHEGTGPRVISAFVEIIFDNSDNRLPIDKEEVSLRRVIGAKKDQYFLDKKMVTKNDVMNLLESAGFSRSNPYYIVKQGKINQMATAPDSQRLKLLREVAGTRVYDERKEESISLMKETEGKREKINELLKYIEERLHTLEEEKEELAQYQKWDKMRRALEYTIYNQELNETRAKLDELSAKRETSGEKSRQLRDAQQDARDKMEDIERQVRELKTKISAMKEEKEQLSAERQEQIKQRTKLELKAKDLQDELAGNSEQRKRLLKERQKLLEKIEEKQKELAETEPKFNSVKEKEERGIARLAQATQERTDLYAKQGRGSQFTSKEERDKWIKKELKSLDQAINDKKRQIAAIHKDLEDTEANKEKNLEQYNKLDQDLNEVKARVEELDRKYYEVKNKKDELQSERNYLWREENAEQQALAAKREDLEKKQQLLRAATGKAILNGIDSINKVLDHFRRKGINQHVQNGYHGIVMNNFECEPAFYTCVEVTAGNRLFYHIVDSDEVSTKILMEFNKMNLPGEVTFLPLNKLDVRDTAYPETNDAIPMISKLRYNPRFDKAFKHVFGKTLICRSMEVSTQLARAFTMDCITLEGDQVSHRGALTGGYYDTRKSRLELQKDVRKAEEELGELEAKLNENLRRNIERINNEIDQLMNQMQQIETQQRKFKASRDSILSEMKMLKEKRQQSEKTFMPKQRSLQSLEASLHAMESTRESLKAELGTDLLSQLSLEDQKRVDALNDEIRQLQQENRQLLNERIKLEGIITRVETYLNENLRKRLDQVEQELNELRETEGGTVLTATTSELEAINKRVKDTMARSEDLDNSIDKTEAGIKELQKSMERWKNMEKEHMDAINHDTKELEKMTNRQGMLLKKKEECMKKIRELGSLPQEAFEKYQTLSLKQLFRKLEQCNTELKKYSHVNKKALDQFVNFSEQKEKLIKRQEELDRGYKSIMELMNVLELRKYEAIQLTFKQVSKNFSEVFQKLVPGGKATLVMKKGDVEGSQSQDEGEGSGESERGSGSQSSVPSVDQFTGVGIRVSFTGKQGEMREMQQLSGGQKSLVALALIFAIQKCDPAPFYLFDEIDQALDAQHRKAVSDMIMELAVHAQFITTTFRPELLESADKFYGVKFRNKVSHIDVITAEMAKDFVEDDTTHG
UniProt P12270: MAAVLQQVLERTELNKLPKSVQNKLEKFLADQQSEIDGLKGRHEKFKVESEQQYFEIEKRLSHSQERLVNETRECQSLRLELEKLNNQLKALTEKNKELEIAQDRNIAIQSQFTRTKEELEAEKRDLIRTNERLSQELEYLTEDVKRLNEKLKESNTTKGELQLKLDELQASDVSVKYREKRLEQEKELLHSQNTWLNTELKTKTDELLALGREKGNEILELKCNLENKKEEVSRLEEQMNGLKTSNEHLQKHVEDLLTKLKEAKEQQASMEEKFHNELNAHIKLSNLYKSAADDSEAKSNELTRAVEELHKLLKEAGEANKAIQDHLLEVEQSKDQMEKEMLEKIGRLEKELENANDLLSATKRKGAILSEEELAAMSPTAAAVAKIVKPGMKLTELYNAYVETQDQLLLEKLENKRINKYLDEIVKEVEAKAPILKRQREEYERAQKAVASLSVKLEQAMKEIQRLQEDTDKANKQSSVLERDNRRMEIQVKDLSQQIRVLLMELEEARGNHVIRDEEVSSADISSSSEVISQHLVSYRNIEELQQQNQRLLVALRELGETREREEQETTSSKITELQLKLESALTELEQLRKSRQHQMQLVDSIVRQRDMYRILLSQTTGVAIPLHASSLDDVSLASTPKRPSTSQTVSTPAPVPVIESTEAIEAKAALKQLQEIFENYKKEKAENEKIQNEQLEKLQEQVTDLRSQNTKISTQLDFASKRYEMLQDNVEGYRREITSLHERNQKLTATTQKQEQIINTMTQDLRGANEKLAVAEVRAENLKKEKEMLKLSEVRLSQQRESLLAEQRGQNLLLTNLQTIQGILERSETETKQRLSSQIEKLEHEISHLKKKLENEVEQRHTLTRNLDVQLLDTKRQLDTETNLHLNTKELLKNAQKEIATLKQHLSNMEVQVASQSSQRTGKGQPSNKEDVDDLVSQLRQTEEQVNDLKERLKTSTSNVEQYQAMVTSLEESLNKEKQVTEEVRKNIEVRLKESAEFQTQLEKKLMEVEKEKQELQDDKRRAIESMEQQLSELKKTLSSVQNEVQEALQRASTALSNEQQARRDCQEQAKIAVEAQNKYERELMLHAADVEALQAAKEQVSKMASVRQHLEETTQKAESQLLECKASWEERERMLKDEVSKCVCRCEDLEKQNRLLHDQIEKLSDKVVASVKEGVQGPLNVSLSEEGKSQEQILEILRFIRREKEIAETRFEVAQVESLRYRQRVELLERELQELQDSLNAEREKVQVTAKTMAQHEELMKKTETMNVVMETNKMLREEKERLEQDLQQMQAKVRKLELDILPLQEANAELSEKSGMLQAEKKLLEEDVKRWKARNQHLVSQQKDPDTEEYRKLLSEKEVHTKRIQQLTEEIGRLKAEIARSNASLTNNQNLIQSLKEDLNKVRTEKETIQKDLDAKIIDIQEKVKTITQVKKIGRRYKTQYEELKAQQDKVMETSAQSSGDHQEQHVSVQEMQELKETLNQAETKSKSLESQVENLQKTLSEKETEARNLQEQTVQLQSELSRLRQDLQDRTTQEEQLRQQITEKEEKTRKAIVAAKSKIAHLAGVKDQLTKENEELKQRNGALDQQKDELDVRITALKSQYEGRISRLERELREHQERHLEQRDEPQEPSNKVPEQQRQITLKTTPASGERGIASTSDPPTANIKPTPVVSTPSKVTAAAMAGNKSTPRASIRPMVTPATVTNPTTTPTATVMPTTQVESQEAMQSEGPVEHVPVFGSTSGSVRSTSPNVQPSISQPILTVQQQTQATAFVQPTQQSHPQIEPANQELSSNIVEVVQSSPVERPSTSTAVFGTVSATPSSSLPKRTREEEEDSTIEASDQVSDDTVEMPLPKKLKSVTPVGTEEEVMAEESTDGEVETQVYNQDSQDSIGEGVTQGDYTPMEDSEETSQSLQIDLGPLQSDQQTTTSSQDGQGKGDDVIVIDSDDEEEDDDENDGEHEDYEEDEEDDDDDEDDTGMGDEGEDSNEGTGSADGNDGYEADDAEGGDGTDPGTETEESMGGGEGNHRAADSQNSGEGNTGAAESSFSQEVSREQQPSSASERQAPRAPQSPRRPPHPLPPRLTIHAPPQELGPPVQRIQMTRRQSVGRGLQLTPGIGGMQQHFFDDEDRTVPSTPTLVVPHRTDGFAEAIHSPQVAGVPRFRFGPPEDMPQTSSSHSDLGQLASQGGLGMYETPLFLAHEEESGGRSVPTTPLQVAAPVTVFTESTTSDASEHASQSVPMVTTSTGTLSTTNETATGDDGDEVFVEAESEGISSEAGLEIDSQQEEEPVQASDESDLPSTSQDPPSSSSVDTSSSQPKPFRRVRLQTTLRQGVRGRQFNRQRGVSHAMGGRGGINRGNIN

T1: FLAG-tagged mouse NUP153 (mouse) (UniProt E9Q3G8)
T1 sequence: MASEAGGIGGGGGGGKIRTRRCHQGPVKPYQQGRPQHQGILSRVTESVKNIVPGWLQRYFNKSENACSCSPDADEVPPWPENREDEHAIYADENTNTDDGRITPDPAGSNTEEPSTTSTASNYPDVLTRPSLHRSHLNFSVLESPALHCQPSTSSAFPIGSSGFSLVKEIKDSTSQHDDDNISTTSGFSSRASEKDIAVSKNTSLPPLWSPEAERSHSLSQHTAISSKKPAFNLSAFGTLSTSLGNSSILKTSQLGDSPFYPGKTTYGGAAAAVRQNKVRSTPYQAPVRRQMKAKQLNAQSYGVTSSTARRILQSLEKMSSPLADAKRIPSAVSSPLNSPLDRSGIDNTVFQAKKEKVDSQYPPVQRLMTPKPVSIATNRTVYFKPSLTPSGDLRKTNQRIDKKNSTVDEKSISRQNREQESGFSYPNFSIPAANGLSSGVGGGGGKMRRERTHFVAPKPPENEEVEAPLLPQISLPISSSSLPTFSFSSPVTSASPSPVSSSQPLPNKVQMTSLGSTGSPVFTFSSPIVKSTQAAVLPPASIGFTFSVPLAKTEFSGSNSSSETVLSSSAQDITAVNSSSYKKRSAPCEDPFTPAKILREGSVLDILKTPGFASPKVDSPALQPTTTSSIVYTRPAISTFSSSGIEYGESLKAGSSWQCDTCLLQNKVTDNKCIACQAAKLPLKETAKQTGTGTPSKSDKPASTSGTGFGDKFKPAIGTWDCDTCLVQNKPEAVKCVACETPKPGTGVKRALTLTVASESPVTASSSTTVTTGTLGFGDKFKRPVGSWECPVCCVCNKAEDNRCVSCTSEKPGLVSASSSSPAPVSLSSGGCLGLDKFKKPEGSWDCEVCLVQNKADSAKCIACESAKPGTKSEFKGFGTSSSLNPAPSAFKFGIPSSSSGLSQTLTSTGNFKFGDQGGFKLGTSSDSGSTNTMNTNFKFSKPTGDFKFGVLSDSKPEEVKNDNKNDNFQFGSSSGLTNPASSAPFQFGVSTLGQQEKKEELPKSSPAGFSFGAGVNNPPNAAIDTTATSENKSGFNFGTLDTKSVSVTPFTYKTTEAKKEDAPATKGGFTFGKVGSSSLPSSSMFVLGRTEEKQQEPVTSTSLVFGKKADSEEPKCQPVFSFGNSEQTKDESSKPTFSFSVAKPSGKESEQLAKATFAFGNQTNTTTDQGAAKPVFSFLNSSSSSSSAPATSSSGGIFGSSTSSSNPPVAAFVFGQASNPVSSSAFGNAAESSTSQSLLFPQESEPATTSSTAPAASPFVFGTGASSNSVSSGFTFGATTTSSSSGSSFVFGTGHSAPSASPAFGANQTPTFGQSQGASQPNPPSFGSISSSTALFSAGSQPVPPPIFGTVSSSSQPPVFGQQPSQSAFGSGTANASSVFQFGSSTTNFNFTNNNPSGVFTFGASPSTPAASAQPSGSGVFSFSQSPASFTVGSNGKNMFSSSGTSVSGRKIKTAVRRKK

B1: SMC1A (protein, UniProt Q14683 1-1233)
chain: MGFLKLIEIENFKSYKGRQIIGPFQRFTAIIGPNGSGKSNLMDAISFVLGEKTSNLRVKTLRDLIHGAPVGKPAANRAFVSMVYSEEGAEDRTFARVIVGGSSEYKINNKVVQLHEYSEELEKLGILIKARNFLVFQGAVESIAMKNPKERTALFEEISRSGELAQEYDKRKKEMVKAEEDTQFNYHRKKNIAAERKEAKQEKEEADRYQRLKDEVVRAQVQLQLFKLYHNEVEIEKLNKELASKNKEIEKDKKRMDKVEDELKEKKKELGKMMREQQQIEKEIKEKDSELNQKRPQYIKAKENTSHKIKKLEAAKKSLQNAQKHYKKRKGDMDELEKEMLSVEKARQEFEERMEEESQSQGRDLTLEENQVKKYHRLKEEASKRAATLAQELEKFNRDQKADQDRLDLEERKKVETEAKIKQKLREIEENQKRIEKLEEYITTSKQSLEEQKKLEGELTEEVEMAKRRIDEINKELNQVMEQLGDARIDRQESSRQQRKAEIMESIKRLYPGSVYGRLIDLCQPTQKKYQIAVTKVLGKNMDAIIVDSEKTGRDCIQYIKEQRGEPETFLPLDYLEVKPTDEKLRELKGAKLVIDVIRYEPPHIKKALQYACGNALVCDNVEDARRIAFGGHQRHKTVALDGTLFQKSGVISGGASDLKAKARRWDEKAVDKLKEKKERLTEELKEQMKAKRKEAELRQVQSQAHGLQMRLKYSQSDLEQTKTRHLALNLQEKSKLESELANFGPRINDIKRIIQSREREMKDLKEKMNQVEDEVFEEFCREIGVRNIREFEEEKVKRQNEIAKKRLEFENQKTRLGIQLDFEKNQLKEDQDKVHMWEQTVKKDENEIEKLKKEEQRHMKIIDETMAQLQDLKNQHLAKKSEVNDKNHEMEEIRKKLGGANKEMTHLQKEVTAIETKLEQKRSDRHNLLQACKMQDIKLPLSKGTMDDISQEEGSSQGEDSVSGSQRISSIYAREALIEIDYGDLCEDLKDAQAEEEIKQEMNTLQQKLNEQQSVLQRIAAPNMKAMEKLESVRDKFQETSDEFEAARKRAKKAKQAFEQIKKERFDRFNACFESVATNIDEIYKALSRNSSAQAFLGPENPEEPYLDGINYNCVAPGKRFRPMDNLSGGEKTVAALALLFAIHSYKPAPFFVLDEIDAALDNTNIGKVANYIKEQSTCNFQAIVISLKEEFYTKAESLIGVYPEQGDCVISKVLTFDLTKYPDANPNPNEQ

biological target: T1, FLAG-tagged mouse NUP153 (mouse); assay: affinity purification with mass spectrometry; FLAG-mNUP153 expressed in HEK293T; nuclear fraction pellet lysed, anti-FLAG M2 affinity gel at 4 °C for 2 h, eluted with FLAG peptide, LC-MS/MS; mock transfected cells as control

| binding | Molecule |
| --- | --- |
| binds | RAD21 (from UniProt O60216 1-631) |
| binds | SMC3 (from UniProt Q9UQE7 1-1217) |
| binds | TPR (from UniProt P12270 1-2363) |
| binds | B1 |
